Results are given in words; binding and its absence hold for the method and conditions named. Binding seen in cells or lysates may run through a third protein. Where a sequence is shown, tags or fusion partners need not be part of it.
Tests used:
[1] = biological target: HA-RSK3 DN30 (N-terminally truncated RSK3 mutant); assay: co-immunoprecipitation, COS-7 cells
[2] = biological target: HA-tagged full-length RSK2; assay: co-immunoprecipitation, COS-7 cells

binding [1]: no binding | binding [2]: no binding
B1: myc-tagged mAKAP RSK binding domain (RBD), mAKAP 1694-1833 (protein, UniProt Q9WVC7 1694-1833, looked up, not shown: small tags and cut ends)
chain: ELSLCSEDIVLHKNKIPESNASFRKRLNRSVADESDVNVSMIVNVSCTSACTDDEDDSDLLSSSTLTLTEEELCLKDEDDDSSIATDDEIYEESNLMSGLDYIKNELQTWIRPKLSLTREKKRSGVTDEIKVNKDGGGNE

From patent US9132174 (ANCHORED RSK3 INHIBITORS, dated 2015)
